Here are results for 105 sequences from PubChem BioAssay AID1347423 (Functional Genomics Laboratory (NCATS/FGL), 2020).

About 210 (0.4%) of roughly 52,000 sequences were called active.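 Rule for the calls: active = gene whose silencing raises cell survival under the drug, median off-target-corrected z-score across its silencing RNAs 2 or more; inactive = the rest.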 The list shows a part of the results.

This assay can be described thus: Resistance to Poly (ADP-Ribose) Polymerase inhibitor: Gene Identification via Genome-wide siRNA Screen. The settings on record: mouse BRCA2 R2336H ES cells, olaparib, CellTiter-Glo viability; hits give high values. In outline:
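Mouse BRCA2 R2336H ES cells were reverse-transfected with siRNA (20 nM final), treated at 48 h with 500 nM olaparib, and read by CellTiter-Glo after 72 h. Scores: MAD-based z per siRNA, median per gene, seed off-target correction.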
As to GCGACUGAACAUCAACGCATT against Ada, the z-score is inactive: 0.969.

For the sequence GGAUGAAAGCAAAGACAAGTT against Zipro1, the z-score was inactive: 0.174.

Turning to “GGGAAUGCACUACAACUACTT against D1Bwg1363e”, the z-score is inactive: -0.273.

Turning to “GGACUCUGUCCUUUUCAAATT against 5031404N07”, the z-score was inactive: 0.407.

As to UACCCUAGGUCGACUCUCATT against Faim3, the z-score is inactive: -0.689.

With GGACGACAUGAUUUUCGAGTT against Atp1b1, the z-score was inactive: -0.208.

With GGAAGAUGAUGUUUUAGGUTT against Pde7a, the z-score is inactive: 2.

In the case of GUCAACUUGCUGCCAAGACTT against Ifna2, the z-score is inactive: -2.74.

Consider CCAAACAAUAGACAUGCUUTT against Npy1r, for which the z-score is inactive: 1.24.

Take GGAUGAAGACCUUGAACGGTT against Slc28a3: the z-score is inactive: 2.

GCAGUGAUUCAGUUAUAACTT against Gypc: the z-score was inactive: 0.0824.

In the case of “GGAUUUUGUUUCAGGUGGATT against 4832412O06Rik”, the z-score is inactive: 0.127.

On to “GCUAAAAUAUUAGGGAAGCTT against 1810026J23Rik”, for which the z-score was inactive: 0.159.

Turning to GGUUUAAGAUUGAGUAUUCTT against Cri1, the z-score was inactive: 0.0181.

As for CCCGGAGGCUUCAAAACAATT against Hsd17b2, the z-score is inactive: -0.549.

For the sequence GAAGAUGACAACCAAACGCTT against Ucn3, the z-score is inactive: 0.885.

With GAUUCUUGUCGCUCAUAGCTT against V1ra7, the z-score is inactive: -0.4.

As for “GCUCUCAGCAAAAACCGAGTT against 4832420M10”, the z-score was inactive: 2.2.

Take GGAAGAAAAACAGAGGAGATT against Cts7: the z-score is inactive: 0.987.

As to “UGUUCUGGAAUAGAGUAACTT against 2900006N09Rik”, the z-score is inactive: -0.463.

In the case of CGUGUACGACAUCUCCUAUTT against BC003324, the z-score was inactive: 0.358.

Consider “GCUAACAAGCUAGCAUUUATT against 2610020N02Rik”, for which the z-score was inactive: -2.

On to CCCAAGCAACCCUUAUCAATT against Mcee, for which the z-score was inactive: 1.36.

For the sequence “GGAUAUGUUGAAAGACAGCTT against 4932413O14Rik”, the z-score is inactive: 0.593.

GGACAUGACUCUAAAAAAATT against BC010552: the z-score was inactive: 0.843.

“CCUGACCAAGGGACUCUCUTT against 6330514A18Rik”: the z-score is inactive: 0.0711.

As for GGAGAAUGAGAUCAACCUGTT against Pah, the z-score was inactive: 0.0423.

Turning to GGGAGUUAAAUACCUGUGUTT against Dusp22, the z-score was inactive: -0.45.

As for GCUUAUGCAAUAUGAUAACTT against Gnpda2, the z-score was inactive: 0.552.

For the sequence CCUUCUAAGAGAAAAACGUTT against Eps15, the z-score was inactive: 0.449.

Consider GGAAAUGGAGAAAUAUGCATT against Plod3, for which the z-score was inactive: 2.65.

In the case of GGAAGGUACCAGGUGAUUGTT against Nmnat3, the z-score is inactive: 1.39.

On to GGUCAACAAGGGCUUAUAGTT against Rpl22, for which the z-score is inactive: -0.592.

As for “GGAUAAAGGAAUCUGAUCUTT against C030018G13Rik”, the z-score is inactive: 1.03.

Regarding GGAGGAGAUUGUCCAGAAATT against Ecm1, the z-score was inactive: -0.217.

On to GGAUCUACGAAAAAGAUGATT against Crygb, for which the z-score is inactive: 0.051.

Turning to GGUGAACUUGAAGUGCCUCTT against Tna, the z-score was inactive: 0.317.

For the sequence GGUGACCAAUCUGUAUGUUTT against Madcam1, the z-score was inactive: 0.603.

With “CCAUUUCUAAGUGUGAAAGTT against 4632428N05Rik”, the z-score is inactive: 0.242.

As for GGUACUUUCGGACUCAGUUTT against Ipp, the z-score was inactive: -1.89.

For GGCAUAUCAACUGUCGUUCTT against Cyp2r1, the z-score was inactive: 0.303.

Consider GCCACCAGUGCUUUUCAAGTT against Gm962, for which the z-score was inactive: 0.407.

Consider CGAGGAGAUCAGCUACUUUTT against Lin7c, for which the z-score was inactive: -0.895.

For GCAAAGAUUGUUUUUGCUGTT against Oat, the z-score was inactive: 0.236.

With GGAUAAACUUAAACAACUCTT against Tnpo2, the z-score was inactive: 0.543.

Regarding CCAAGAACUGCUCAUUCAGTT against Gm123, the z-score is inactive: 0.354.

As for GGUGAUGGUAACUCAACGATT against BC022641, the z-score was inactive: -1.72.

In the case of GCUUGCAUAAAUUGCUAAATT against Xrcc4, the z-score was inactive: 0.542.

With GGGUUUCUCCAGUAUGCAUTT against Mr1, the z-score was inactive: 0.0279.

GCCUCUUUGAUAGCAAAAGTT against Cct6a: the z-score is inactive: 0.0125.

As for GUGACAAAAACAUCCAAGCTT against Olfr456, the z-score is inactive: 0.758.

For GGAGCAGUAUGAAAGGGAUTT against Trap1a, the z-score was inactive: -0.602.

Take GUGUAAAAGUGCAAAGAGATT against Klra7: the z-score is inactive: 0.802.

CCUGAAAGAACGGGAGUAGTT against Mab21l2: the z-score is inactive: -3.52.

Take “GGGAUUGAGGGAGAUUUUCTT against 1600002H07Rik”: the z-score is inactive: 2.55.

As to GGACAUCGAGCUUCAGAUCTT against Dnm1l, the z-score was inactive: -0.515.

As to CGUACUCUUGGAGAGGAUUTT against Sva, the z-score is inactive: 0.626.

Turning to CGACUCCGGCAUCUAUGAUTT against Cmklr1, the z-score is inactive: 0.457.

Take “GGCAUGUGGAAAACCUCCUTT against 1700006D24Rik”: the z-score is inactive: -0.606.

Turning to GCUGGACACGGAAGGUAUATT against Igsf8, the z-score was inactive: -0.279.

For the sequence GGAGACUGAAGUCCAUCAATT against Atp5c1, the z-score is inactive: -2.33.

For the sequence “GGGCUGGGAGACAAAGAAATT against A130050O07Rik”, the z-score was inactive: -1.27.

Take CGUAGAGAUCAGUUCAAUGTT against Clock: the z-score is inactive: -0.2.

As for GGAGAUCUAUUACCACGGATT against Arrb1, the z-score was inactive: -0.648.

In the case of GGAUAGGGCAUGGAAAUCCTT against Scnn1g, the z-score was inactive: 1.93.

Take GCAUUCAAUGUUCUUAAGCTT against Tmc3: the z-score is inactive: 0.183.

Turning to GGCGACAGGUCCUGUAAUGTT against Ddx56, the z-score was inactive: 0.435.

For the sequence CGACCUACUUGGGAUGAUGTT against AY487415, the z-score was inactive: -2.49.

For GGAUUAGAAUGUCAUGUCUTT against Ddx20, the z-score is inactive: 1.43.

Regarding “GGAUAAAGCCCAGUGAACCTT against C630035N08Rik”, the z-score is inactive: 0.862.

As for GGGCGAUGAAGAAGAGAAATT against Smad1, the z-score is inactive: -1.62.

On to CGACGAACGGGUAAAAGGUTT against Pcdha4, for which the z-score was inactive: 0.327.

For GUGCCUCUCAUCACUAUCUTT against Olfr571, the z-score was inactive: -0.175.

In the case of GGUUUGUAGACGACAAUCUTT against Insig1, the z-score is inactive: 0.173.

For the sequence GGACAUGAAAGAAACGGUGTT against Bbc3, the z-score was inactive: 0.575.

In the case of “GGCAGAACUUGCCGAGUAGTT against 2010300G19Rik”, the z-score is inactive: -2.14.

Consider GCAAGUUAAGGAUAUCAUGTT against Katna1, for which the z-score is inactive: 0.32.

In the case of GGAAGUGGACGUGAAACCCTT against Btg3, the z-score was inactive: -0.889.

Regarding CCCGAGACCAUUAAUGAUUTT against Snx3, the z-score is inactive: 0.327.

In the case of GCUUGUUCGGGAAUCUUAUTT against Olfr292, the z-score was inactive: 0.0211.

Consider GGACCGGUGUCUAAUCAGCTT against Capn10, for which the z-score was inactive: 0.157.

On to “GCUUGUGCUCUAAAUAUGATT against 4921513B05Rik”, for which the z-score is inactive: 0.866.

In the case of GGAACAUUGGUGUUACAGCTT against Atp5j, the z-score was inactive: -0.285.

In the case of GGAACUAGGACUAAACAACTT against Lrrn2, the z-score is inactive: -0.131.

Regarding GGGAGCUCCAAGGUUACUUTT against BC043301, the z-score was inactive: -1.49.

For the sequence GGUGUUUGGGCGGUUUGAATT against Snx15, the z-score is inactive: -2.33.

On to GCACUCCACUCUUCCAUCATT against Cxcl16, for which the z-score is inactive: 0.82.

Turning to CCUAAUCAGCAAACCAGGUTT against Magee2, the z-score was inactive: 0.201.

Consider “GGUGCUACAAUUCUGUGCGTT against 4921526K24Rik”, for which the z-score was inactive: 1.53.

As to GGCUAAAUGAGCAAAAUCUTT against Falz, the z-score is inactive: 0.445.

With GCAUGAUGCAAGGACUCUCTT against Onecut2, the z-score is inactive: -2.23.

GGUGAUAAAACCUGUUUCATT against Col19a1: the z-score is inactive: -1.26.

For GGCUGUGCUUUCUCUUGAUTT against BC037034, the z-score is inactive: -1.41.

In the case of GCUACUACAGUCAGUCGCATT against Galr2, the z-score is inactive: 1.13.

Take GGGCAUUGGAAAACUAAAGTT against Lrrc1: the z-score was inactive: 0.289.

Regarding GCCAACUUGUACCAAACGCTT against Slc25a19, the z-score is inactive: 0.12.

For GGAAUGAUGCCACAGAGGUTT against Sost, the z-score was inactive: -2.77.

As for GGUAAAAGGUGCCCUUCAATT against Olfr1056, the z-score is inactive: 0.862.

As for GCUUGCUCGGAGCUUAAGATT against Pik3c3, the z-score is inactive: -1.

Turning to GGAUAAUUUGGAUUUCGAGTT against Pcdhgb2, the z-score is inactive: 1.77.

For GGCUACAGGGUCUUAUUUCTT against Alx3, the z-score was inactive: 1.99.

As to GGAUGCAGAUGCUGUGGACTT against S100a1, the z-score was inactive: 1.41.

As to GGACAUAUAUAGCAAGGAGTT against Polrmt, the z-score was inactive: 0.538.

For the sequence GGCAUAUCCUCCUUAUCCATT against Dazl, the z-score is inactive: 1.2.

Regarding GGUGAGAAAUCGAAGCCCUTT against H1foo, the z-score is inactive: 0.793.
